Experimental data reported in the supplement of paper PMC10849652.
The other results are listed elsewhere or left out.

Chains of the proteins cited; added tags and fusions are not shown. Lines headed by an entry give the natural chain unless they say otherwise; changes in a name come on top.
UniProt P11717, whole entry, looked up: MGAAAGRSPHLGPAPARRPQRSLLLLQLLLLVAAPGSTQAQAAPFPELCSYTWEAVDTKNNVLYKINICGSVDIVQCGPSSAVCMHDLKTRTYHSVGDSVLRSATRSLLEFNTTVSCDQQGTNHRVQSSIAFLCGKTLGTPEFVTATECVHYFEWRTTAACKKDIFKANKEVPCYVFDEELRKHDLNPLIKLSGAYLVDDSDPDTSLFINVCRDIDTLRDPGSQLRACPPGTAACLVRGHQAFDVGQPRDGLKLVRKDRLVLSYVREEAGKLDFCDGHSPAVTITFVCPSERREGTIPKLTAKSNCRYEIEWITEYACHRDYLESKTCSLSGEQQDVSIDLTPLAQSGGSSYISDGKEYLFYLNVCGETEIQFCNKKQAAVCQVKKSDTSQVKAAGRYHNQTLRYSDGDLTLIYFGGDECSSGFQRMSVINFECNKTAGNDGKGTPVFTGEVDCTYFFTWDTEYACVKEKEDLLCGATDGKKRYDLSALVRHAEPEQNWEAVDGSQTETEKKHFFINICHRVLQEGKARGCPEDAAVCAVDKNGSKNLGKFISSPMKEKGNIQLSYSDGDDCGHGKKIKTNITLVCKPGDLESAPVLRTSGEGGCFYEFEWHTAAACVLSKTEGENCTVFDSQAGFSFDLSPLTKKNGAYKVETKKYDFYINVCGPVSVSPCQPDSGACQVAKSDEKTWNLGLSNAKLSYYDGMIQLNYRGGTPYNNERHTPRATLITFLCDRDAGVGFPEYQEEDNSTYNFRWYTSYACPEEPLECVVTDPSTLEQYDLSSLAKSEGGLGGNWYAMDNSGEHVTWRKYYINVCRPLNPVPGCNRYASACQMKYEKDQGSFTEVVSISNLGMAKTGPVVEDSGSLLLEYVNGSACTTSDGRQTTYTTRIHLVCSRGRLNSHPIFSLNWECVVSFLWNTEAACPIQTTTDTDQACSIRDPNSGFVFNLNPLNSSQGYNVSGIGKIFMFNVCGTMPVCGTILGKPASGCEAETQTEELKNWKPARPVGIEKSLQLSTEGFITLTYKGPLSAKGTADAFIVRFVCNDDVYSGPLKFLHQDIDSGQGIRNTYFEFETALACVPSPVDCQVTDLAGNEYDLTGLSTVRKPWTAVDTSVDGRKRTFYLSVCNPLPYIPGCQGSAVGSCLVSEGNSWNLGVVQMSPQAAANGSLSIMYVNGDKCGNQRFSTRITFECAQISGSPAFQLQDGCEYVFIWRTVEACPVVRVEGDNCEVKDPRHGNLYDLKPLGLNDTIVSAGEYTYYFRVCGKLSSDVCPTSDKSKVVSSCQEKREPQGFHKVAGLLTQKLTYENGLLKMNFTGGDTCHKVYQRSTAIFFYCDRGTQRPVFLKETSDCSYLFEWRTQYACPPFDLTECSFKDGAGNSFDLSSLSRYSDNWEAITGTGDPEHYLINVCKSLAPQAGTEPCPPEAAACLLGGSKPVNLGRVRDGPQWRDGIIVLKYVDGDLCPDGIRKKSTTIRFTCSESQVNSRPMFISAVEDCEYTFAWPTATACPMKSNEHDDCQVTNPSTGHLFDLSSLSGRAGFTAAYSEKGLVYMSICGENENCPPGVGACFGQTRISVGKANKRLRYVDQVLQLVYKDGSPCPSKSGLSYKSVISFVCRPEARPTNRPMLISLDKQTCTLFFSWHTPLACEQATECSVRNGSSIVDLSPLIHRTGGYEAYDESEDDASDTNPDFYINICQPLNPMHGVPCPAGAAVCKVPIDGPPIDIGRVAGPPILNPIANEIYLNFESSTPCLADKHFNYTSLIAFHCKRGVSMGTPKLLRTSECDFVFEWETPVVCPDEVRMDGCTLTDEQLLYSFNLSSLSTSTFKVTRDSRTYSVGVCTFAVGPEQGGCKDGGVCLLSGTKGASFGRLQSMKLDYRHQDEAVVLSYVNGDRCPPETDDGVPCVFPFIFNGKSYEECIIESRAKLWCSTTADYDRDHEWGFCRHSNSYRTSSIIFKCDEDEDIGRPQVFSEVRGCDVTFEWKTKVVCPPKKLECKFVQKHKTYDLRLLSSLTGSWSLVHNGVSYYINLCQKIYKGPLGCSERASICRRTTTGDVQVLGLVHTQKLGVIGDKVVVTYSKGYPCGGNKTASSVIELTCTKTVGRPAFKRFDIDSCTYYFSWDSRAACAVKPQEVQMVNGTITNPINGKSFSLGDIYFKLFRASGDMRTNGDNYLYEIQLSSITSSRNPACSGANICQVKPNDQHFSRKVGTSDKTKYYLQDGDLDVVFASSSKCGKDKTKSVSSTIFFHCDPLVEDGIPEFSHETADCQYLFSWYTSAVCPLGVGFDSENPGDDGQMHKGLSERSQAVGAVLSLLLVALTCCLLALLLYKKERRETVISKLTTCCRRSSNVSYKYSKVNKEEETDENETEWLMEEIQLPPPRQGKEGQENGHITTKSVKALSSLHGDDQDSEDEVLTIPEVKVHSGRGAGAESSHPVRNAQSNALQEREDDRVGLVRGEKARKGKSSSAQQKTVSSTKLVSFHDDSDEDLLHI
UniProt P32019: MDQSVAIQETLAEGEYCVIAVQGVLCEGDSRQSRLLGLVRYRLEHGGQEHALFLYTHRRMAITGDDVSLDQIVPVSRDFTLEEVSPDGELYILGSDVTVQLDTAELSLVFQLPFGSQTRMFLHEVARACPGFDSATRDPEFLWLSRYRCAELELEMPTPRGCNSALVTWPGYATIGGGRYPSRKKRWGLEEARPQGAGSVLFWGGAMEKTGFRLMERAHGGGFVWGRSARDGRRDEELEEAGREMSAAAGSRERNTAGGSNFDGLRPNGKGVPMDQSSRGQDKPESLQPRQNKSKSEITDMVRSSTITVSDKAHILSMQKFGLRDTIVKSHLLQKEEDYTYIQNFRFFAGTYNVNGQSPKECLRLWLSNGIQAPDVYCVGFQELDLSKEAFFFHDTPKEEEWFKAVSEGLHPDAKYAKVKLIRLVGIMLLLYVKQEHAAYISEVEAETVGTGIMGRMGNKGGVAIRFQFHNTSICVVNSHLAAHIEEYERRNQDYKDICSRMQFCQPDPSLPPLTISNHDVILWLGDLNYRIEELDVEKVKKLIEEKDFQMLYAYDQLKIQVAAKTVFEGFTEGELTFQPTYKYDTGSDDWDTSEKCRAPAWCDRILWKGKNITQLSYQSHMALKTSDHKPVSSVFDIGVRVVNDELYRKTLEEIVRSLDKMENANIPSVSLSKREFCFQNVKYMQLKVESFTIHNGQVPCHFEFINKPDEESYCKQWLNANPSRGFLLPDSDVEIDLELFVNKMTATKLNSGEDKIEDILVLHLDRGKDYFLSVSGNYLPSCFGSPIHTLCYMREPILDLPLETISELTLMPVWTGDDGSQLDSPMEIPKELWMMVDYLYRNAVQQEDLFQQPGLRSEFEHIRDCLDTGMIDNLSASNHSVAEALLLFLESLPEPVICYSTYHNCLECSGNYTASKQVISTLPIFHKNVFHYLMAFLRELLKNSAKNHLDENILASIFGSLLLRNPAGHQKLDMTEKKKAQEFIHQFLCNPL
UniProt Q9BUE6: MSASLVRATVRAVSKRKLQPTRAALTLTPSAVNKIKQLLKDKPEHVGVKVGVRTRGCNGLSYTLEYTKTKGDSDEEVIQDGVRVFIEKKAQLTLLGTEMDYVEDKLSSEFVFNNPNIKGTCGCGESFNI
UniProt Q8TB96: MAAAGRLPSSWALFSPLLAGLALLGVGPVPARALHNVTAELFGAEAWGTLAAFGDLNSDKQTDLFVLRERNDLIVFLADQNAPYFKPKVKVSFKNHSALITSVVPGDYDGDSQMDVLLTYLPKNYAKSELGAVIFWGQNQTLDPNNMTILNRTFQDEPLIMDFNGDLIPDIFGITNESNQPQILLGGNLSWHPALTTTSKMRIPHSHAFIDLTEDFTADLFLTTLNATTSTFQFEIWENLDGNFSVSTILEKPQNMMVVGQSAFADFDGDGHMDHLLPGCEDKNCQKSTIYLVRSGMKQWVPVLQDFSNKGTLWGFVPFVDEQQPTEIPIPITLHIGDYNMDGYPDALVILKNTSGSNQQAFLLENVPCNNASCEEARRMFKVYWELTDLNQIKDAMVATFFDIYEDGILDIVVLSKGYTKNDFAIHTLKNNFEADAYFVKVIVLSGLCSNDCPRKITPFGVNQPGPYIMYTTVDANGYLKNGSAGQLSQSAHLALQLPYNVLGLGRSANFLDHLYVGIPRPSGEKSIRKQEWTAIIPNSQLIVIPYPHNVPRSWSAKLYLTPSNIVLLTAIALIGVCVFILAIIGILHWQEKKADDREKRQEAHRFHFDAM
UniProt Q9NVH2, whole entry, looked up: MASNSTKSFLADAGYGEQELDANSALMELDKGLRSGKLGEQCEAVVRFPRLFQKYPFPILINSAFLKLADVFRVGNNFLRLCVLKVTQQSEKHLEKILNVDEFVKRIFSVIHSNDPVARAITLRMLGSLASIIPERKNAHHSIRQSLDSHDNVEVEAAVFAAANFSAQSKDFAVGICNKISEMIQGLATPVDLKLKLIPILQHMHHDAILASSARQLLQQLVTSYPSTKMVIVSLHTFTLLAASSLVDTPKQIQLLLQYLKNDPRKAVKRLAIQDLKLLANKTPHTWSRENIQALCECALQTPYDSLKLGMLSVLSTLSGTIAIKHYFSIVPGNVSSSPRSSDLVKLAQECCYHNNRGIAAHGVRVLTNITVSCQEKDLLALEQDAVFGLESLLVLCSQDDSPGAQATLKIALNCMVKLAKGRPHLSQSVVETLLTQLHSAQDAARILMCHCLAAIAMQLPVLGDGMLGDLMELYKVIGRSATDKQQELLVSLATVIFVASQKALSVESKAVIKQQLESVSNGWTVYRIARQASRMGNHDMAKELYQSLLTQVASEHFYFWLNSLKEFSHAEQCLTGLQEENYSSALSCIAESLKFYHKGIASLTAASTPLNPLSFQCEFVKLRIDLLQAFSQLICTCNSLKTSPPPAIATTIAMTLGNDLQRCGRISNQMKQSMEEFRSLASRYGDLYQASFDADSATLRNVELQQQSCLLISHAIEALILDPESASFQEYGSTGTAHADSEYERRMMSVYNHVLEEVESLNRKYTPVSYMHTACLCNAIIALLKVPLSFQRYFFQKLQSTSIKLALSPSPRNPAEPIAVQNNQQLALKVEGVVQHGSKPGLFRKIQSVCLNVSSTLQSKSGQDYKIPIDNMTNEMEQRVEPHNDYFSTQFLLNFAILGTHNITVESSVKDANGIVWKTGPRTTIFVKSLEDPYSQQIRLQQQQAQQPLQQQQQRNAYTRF
UniProt Q01628, whole entry, looked up: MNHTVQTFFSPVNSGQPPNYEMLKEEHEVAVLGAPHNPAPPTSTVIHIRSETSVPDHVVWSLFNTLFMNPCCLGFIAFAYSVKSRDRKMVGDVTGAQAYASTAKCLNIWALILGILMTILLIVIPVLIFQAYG
UniProt O43837: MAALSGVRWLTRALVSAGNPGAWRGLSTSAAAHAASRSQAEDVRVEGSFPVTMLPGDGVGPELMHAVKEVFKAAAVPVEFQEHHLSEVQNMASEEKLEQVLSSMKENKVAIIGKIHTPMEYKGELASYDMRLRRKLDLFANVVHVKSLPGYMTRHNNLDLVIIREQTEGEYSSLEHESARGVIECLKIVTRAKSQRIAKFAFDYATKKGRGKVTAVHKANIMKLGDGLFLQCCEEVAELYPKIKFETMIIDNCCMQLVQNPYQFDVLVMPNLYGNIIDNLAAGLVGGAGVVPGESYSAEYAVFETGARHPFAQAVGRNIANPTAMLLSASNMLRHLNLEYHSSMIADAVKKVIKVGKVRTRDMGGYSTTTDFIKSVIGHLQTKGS
UniProt Q06033: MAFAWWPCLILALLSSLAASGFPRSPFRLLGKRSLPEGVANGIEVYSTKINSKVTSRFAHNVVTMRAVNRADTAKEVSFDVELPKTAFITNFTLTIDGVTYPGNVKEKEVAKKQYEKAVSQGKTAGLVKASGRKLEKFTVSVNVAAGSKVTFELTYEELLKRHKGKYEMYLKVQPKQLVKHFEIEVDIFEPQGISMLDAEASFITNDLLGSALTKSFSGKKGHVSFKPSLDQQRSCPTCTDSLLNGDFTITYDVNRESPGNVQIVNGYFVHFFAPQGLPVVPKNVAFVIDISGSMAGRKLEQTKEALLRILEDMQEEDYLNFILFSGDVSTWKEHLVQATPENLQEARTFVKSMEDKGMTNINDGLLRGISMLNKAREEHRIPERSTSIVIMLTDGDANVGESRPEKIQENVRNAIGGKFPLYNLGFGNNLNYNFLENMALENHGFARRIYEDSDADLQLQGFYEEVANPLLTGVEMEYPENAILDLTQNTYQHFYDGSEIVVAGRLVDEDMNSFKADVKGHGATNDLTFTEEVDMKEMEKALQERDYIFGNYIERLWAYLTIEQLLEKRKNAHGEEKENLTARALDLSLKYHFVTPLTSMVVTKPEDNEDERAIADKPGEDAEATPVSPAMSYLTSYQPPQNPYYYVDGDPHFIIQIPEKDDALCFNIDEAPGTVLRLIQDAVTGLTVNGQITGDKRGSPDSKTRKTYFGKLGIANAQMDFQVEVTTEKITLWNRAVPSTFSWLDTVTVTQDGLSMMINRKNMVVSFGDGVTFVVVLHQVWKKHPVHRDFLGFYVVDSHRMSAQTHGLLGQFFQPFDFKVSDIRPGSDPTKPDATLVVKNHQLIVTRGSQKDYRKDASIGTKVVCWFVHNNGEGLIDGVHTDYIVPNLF

Key:
Assay in all cases: log2 fold change, soluble protein after heating vs DMSO (PISA); higher = thermal stabilisation; K562 cells, 10 uM, 30 min; active = over 0.2 and 3.5 SD of the protein, either way, in both replicates (recomputed)
[1] = compound: C1=CC=C(C=C1)[C@H](COC2=CC3=C(C=C2)NC(=O)N3)NC(=O)C4=CC=CN(C4=O)CC5=CC(=C(C=C5)F)F
Outline: (§1)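 K562 cells at 2×10^6 cells/mL were treated with 10 μM compound for 30 min. Aliquots were heated for 3 min across 48°C-58°C, pooled, and extracted in PBS with 0.5% NP-40 at 4°C; soluble protein was the supernatant after 21,000xg for 90 min. Soluble protein was quantified by TMTpro 16plex LC-MS/MS with channel sums equalised, and reported as log2 fold change in thermal stability against DMSO controls, with values from duplicates.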

[2] = compound: CC1=C(SC2=C1C(=N[C@H](C3=NN=C(N32)C)CC(=O)N)C4=CC=C(C=C4)Cl)C
Outline: as §1

[3] = compound: CC1=C2C(=CC=C1)N=C(N(C2=O)C3=CC=CC=C3C)CN4C=NC5=C(N=CN=C54)N
Outline: as §1

[4] = compound: Cc1sc2c(c1C)C(c1ccc(Cl)cc1)=N[C@@H](CC(=O)OC(C)(C)C)c1nnc(C)n1-2
Outline: as §1

[5] = compound: c1ccc([C@@H]2C[C@H]2NC2CCNCC2)cc1
Outline: as §1

Measured: log2 fold change

INTS3 (UniProt Q68E01)
inactive: [1] -0.097 | [2] 0.042 | [3] -0.07 | [4] 0.01 | [5] 0.029

ILK (UniProt Q13418)
inactive: [1] -0.081 | [2] 0.017 | [3] 0.132 | [4] 0.053 | [5] -0.087

IFRD1 (UniProt O00458)
inactive: [1] -0.011 | [2] -0.069 | [3] 0.049 | [4] 0.02 | [5] 0.004

IDI1 isoform 2 (UniProt Q13907)
inactive: [1] -0.024 | [2] 0.024 | [3] 0.037 | [4] 0.003 | [5] -0.007

ISCA2 (UniProt Q86U28)
inactive: [1] 0.019 | [2] 0.075 | [3] 0.097 | [4] -0.021 | [5] 0.034

IMMT isoform 2 (UniProt Q16891)
inactive: [1] 0.021 | [2] 0.029 | [3] 0.035 | [4] 0.091 | [5] 0.033

IGSF8 (UniProt Q969P0)
inactive: [1] -0.04 | [2] 0.075 | [3] -0.057 | [4] -0.082 | [5] -0.059

IGF2R (UniProt P11717)
inactive: [1] 0.013 | [2] 0.007 | [3] -0.008 | [4] 0.001 | [5] -0.002

IL18 (UniProt Q14116)
inactive: [1] -0.007 | [2] 0.055 | [3] 0.096 | [4] -0.008 | [5] 0.001

INTS8 (UniProt Q75QN2)
inactive: [1] -0.192 | [2] 0.078 | [3] 0.101 | [4] 0.087 | [5] 0.028

IMMT isoform 4 (UniProt Q16891)
inactive: [1] 0.005 | [2] 0.021 | [3] 0.026 | [4] -0.025 | [5] -0.008

IFNGR1 (UniProt P15260)
inactive: [1] 0.106 | [2] 0.105 | [3] 0.028 | [4] 0.046 | [5] 0.03

IGF2BP2 (UniProt Q9Y6M1)
inactive: [1] 0.122 | [2] -0.271 | [3] -0.038 | [4] 0.25 | [5] 0.019

INPP5B (UniProt P32019)
inactive: [1] -0.067 | [2] 0.056 | [3] 0.024 | [4] 0.086 | [5] -0.035

ISCA1 isoform 2 (UniProt Q9BUE6)
inactive: [1] 0.059 | [2] -0.025 | [3] -0.119 | [4] -0.107 | [5] 0.021

ITFG1 (UniProt Q8TB96)
inactive: [1] -0.041 | [2] 0.025 | [3] 0.021 | [4] 0.081 | [5] 0.025

INTS14 (UniProt Q96SY0)
inactive: [1] -0.038 | [2] 0.01 | [3] 0.041 | [4] -0.033 | [5] 0.021

ITGA5 (UniProt P08648)
inactive: [1] 0.005 | [2] 0.069 | [3] 0.016 | [4] -0.024 | [5] 0.026

IER3IP1 (UniProt Q9Y5U9)
inactive: [1] 0.07 | [2] -0.252 | [3] -0.263 | [4] -0.012 | [5] 0.063

ILF3 isoform 7 (UniProt Q12906)
inactive: [1] 0.038 | [2] -0.061 | [3] -0.126 | [4] 0.194 | [5] 0.028

ITIH2 (UniProt P19823)
inactive: [1] -0.02 | [2] -0.042 | [3] 0.056 | [4] 0.07 | [5] 0.11

INTS7 (UniProt Q9NVH2)
inactive: [1] -0.005 | [2] 0.086 | [3] 0.001 | [4] -0.085 | [5] -0.054

ITCH (UniProt Q96J02)
inactive: [1] -0.063 | [2] -0.011 | [3] -0.064 | [4] 0.038 | [5] -0.024

INTS9 (UniProt Q9NV88)
inactive: [1] 0 | [2] 0.041 | [3] 0.023 | [4] -0.027 | [5] -0.043

IDH2 (UniProt P48735)
inactive: [1] 0.027 | [2] 0.041 | [3] 0.018 | [4] 0.004 | [5] 0

IFI30 (UniProt P13284)
inactive: [1] -0.066 | [2] 0.01 | [3] -0.06 | [4] 0.004 | [5] 0.048

IFNAR1 (UniProt P17181)
inactive: [1] 0.035 | [2] 0.133 | [3] 0.08 | [4] -0.065 | [5] -0.053

INPP4A (UniProt Q96PE3)
inactive: [1] -0.008 | [2] -0.021 | [3] -0.075 | [4] 0.004 | [5] 0.008

IGBP1 (UniProt P78318)
inactive: [1] -0.03 | [2] 0.132 | [3] 0.018 | [4] -0.003 | [5] -0.075

ISYNA1 (UniProt Q9NPH2)
inactive: [1] -0.064 | [2] -0.001 | [3] -0.001 | [4] -0.027 | [5] 0.013

IFRD2 isoform 2 (UniProt Q12894)
inactive: [1] -0.013 | [2] -0.091 | [3] -0.055 | [4] 0.063 | [5] 0.061

ITGB1 (UniProt P05556)
inactive: [1] 0.026 | [2] -0.013 | [3] -0.017 | [4] 0.019 | [5] 0.018

IRF2BPL (UniProt Q9H1B7)
inactive: [1] -0.051 | [2] 0.027 | [3] 0.001 | [4] -0.067 | [5] -0.043

INTS10 (UniProt Q9NVR2)
inactive: [1] -0.012 | [2] 0.084 | [3] 0.012 | [4] -0.138 | [5] -0.021

ITGAE (UniProt P38570)
inactive: [1] 0.102 | [2] 0.039 | [3] 0.185 | [5] -0.073

IMPDH2 (UniProt P12268)
inactive: [1] 0.057 | [2] -0.094 | [3] -0.095 | [4] -0.002 | [5] -0.013

Reprinted at random: 2 records from the list, in no set order.
ITIH2 (UniProt P19823)
inactive: [1] -0.02 | [2] -0.042 | [3] 0.056 | [4] 0.07 | [5] 0.11

ITGA5 (UniProt P08648)
inactive: [1] 0.005 | [2] 0.069 | [3] 0.016 | [4] -0.024 | [5] 0.026

The listing continues.

ISOC2 (UniProt Q96AB3)
inactive: [1] 0 | [2] -0.029 | [3] -0.004 | [4] -0.01 | [5] -0.024

ISOC1 (UniProt Q96CN7)
inactive: [1] 0.033 | [2] 0.054 | [3] 0.025 | [4] 0.003 | [5] 0.011

IGHA1 (UniProt P01876)
inactive: [1] -0.138 | [2] 0.113 | [3] -0.196 | [4] -0.082 | [5] 0.142

IQGAP1 (UniProt P46940)
inactive: [1] -0.065 | [2] 0.066 | [3] 0.043 | [4] 0.008 | [5] -0.038

IPO5 isoform 3 (UniProt O00410)
inactive: [1] -0.075 | [2] 0.027 | [3] -0.032 | [4] -0.053 | [5] -0.034

ITM2A (UniProt O43736)
inactive: [1] 0.013 | [2] -0.03 | [3] -0.019 | [4] 0.058 | [5] 0.098

IGFBP2 (UniProt P18065)
inactive: [1] -0.121 | [2] -0.101 | [3] 0.131 | [4] -0.295 | [5] 0.062

INTS11 (UniProt Q5TA45)
inactive: [1] -0.009 | [2] 0.06 | [3] 0.013 | [4] -0.004 | [5] -0.022

IFITM3 (UniProt Q01628)
inactive: [1] 0.038 | [2] -0.024 | [3] -0.06 | [4] 0.081 | [5] -0.014

ITGAV (UniProt P06756)
inactive: [1] 0.014 | [2] -0.024 | [3] 0.028 | [4] -0.005 | [5] 0.04

IMPAD1 (UniProt Q9NX62)
inactive: [1] -0.002 | [2] 0.016 | [3] 0.056 | [4] -0.021 | [5] 0.067

IDH3B (UniProt O43837)
inactive: [1] -0.013 | [2] 0.02 | [3] 0.036 | [4] 0.004 | [5] -0.016

INTS13 (UniProt Q9NVM9)
inactive: [1] -0.1 | [2] 0.093 | [3] 0.048 | [4] -0.039 | [5] -0.011

ITIH3 (UniProt Q06033)
inactive: [1] -0.031 | [2] -0.04 | [3] 0.018 | [4] 0.118 | [5] -0.033

ITM2C (UniProt Q9NQX7)
inactive: [1] -0.077 | [2] 0.007 | [3] 0.122 | [5] -0.121
